In publication PMC8165180:
These are yes or no findings as the source states them, for the method shown. Binding seen in cells or lysates may run through a third protein. Some results given as binding are weak or reduced against the parent protein; the word gives no strength.

Chains of the proteins cited; added tags and fusions are not shown.
UniProt Q16875: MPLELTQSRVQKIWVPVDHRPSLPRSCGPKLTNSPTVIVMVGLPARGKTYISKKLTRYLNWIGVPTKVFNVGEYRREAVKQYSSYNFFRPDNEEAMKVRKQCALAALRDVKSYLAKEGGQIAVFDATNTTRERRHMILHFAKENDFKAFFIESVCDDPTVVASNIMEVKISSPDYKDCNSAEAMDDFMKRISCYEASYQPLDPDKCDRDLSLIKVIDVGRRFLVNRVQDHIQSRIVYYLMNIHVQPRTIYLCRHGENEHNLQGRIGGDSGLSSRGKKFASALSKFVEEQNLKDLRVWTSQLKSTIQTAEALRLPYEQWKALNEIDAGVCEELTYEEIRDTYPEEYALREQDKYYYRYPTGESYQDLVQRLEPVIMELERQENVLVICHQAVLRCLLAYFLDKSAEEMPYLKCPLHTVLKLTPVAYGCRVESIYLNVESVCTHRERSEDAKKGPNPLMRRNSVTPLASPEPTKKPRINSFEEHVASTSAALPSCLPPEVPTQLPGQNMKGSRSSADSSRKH

Key:
[1] = biological target: 6-phosphofructo-2-kinase/fructose-2,6-biphosphatase 3 (PFKFB3) (human (endogenous in RPMI8226)) (UniProt Q16875); test: co-IP; endogenous proteins, RPMI8226 whole-cell extracts in RIPA buffer, beads conjugated with specific antibody, 2 h at 4°C, Western blot
PFKFB3 in HEK293T cells = PFKFB3 in HEK293T cells (UniProt Q16875); test: co-IP; HEK293T whole-cell extracts in RIPA buffer, beads conjugated with specific antibody, 2 h at 4°C, Western blot

Binder | binding [1] | binding (PFKFB3 in HEK293T cells)
lysine demethylase KDM2A (protein, UniProt Q9Y2K7 1-1162) MEPEEERIRYSQRLRGTMRRRYEDDGISDDEIEGKRTFDLEEKLHTNKYNANFVTFMEGKDFNVEYIQRGGLRDPLIFKNSDGLGIKMPDPDFTVNDVKMCVGSRRMVDVMDVNTQKGIEMTMAQWTRYYETPEEEREKLYNVISLEFSHTRLENMVQRPSTVDFIDWVDNMWPRHLKESQTESTNAILEMQYPKVQKYCLMSVRGCYTDFHVDFGGTSVWYHIHQGGKVFWLIPPTAHNLELYENWLLSGKQGDIFLGDRVSDCQRIELKQGYTFVIPSGWIHAVYTPTDTLVFGGNFLHSFNIPMQLKIYNIEDRTRVPNKFRYPFYYEMCWYVLERYVYCITNRSHLTKEFQKESLSMDLELNGLESGNGDEEAVDREPRRLSSRRSVLTSPVANGVNLDYDGLGKTCRSLPSLKKTLAGDSSSDCSRGSHNGQVWDPQCAPRKDRQVHLTHFELEGLRCLVDKLESLPLHKKCVPTGIEDEDALIADVKILLEELANSDPKLALTGVPIVQWPKRDKLKFPTRPKVRVPTIPITKPHTMKPAPRLTPVRPAAASPIVSGARRRRVRCRKCKACVQGECGVCHYCRDMKKFGGPGRMKQSCVLRQCLAPRLPHSVTCSLCGEVDQNEETQDFEKKLMECCICNEIVHPGCLQMDGEGLLNEELPNCWECPKCYQEDSSEKAQKRKMEESDEEAVQAKVLRPLRSCDEPLTPPPHSPTSMLQLIHDPVSPRGMVTRSSPGAGPSDHHSASRDERFKRRQLLRLQATERTMVREKENNPSGKKELSEVEKAKIRGSYLTVTLQRPTKELHGTSIVPKLQAITASSANLRHSPRVLVQHCPARTPQRGDEEGLGGEEEEEEEEEEEDDSAEEGGAARLNGRGSWAQDGDESWMQREVWMSVFRYLSRRELCECMRVCKTWYKWCCDKRLWTKIDLSRCKAIVPQALSGIIKRQPVSLDLSWTNISKKQLTWLVNRLPGLKDLLLAGCSWSAVSALSTSSCPLLRTLDLRWAVGIKDPQIRDLLTPPADKPGQDNRSKLRNMTDFRLAGLDITDATLRLIIRHMPLLSRLDLSHCSHLTDQSSNLLTAVGSSTRYSLTELNMAGCNKLTDQTLIYLRRIANVTLIDLRGCKQITRKACEHFISDLSINSLYCLSDEKLIQKIS | binds | –
KDM2A in HEK293T cells (protein, UniProt Q9Y2K7 1-1162) MEPEEERIRYSQRLRGTMRRRYEDDGISDDEIEGKRTFDLEEKLHTNKYNANFVTFMEGKDFNVEYIQRGGLRDPLIFKNSDGLGIKMPDPDFTVNDVKMCVGSRRMVDVMDVNTQKGIEMTMAQWTRYYETPEEEREKLYNVISLEFSHTRLENMVQRPSTVDFIDWVDNMWPRHLKESQTESTNAILEMQYPKVQKYCLMSVRGCYTDFHVDFGGTSVWYHIHQGGKVFWLIPPTAHNLELYENWLLSGKQGDIFLGDRVSDCQRIELKQGYTFVIPSGWIHAVYTPTDTLVFGGNFLHSFNIPMQLKIYNIEDRTRVPNKFRYPFYYEMCWYVLERYVYCITNRSHLTKEFQKESLSMDLELNGLESGNGDEEAVDREPRRLSSRRSVLTSPVANGVNLDYDGLGKTCRSLPSLKKTLAGDSSSDCSRGSHNGQVWDPQCAPRKDRQVHLTHFELEGLRCLVDKLESLPLHKKCVPTGIEDEDALIADVKILLEELANSDPKLALTGVPIVQWPKRDKLKFPTRPKVRVPTIPITKPHTMKPAPRLTPVRPAAASPIVSGARRRRVRCRKCKACVQGECGVCHYCRDMKKFGGPGRMKQSCVLRQCLAPRLPHSVTCSLCGEVDQNEETQDFEKKLMECCICNEIVHPGCLQMDGEGLLNEELPNCWECPKCYQEDSSEKAQKRKMEESDEEAVQAKVLRPLRSCDEPLTPPPHSPTSMLQLIHDPVSPRGMVTRSSPGAGPSDHHSASRDERFKRRQLLRLQATERTMVREKENNPSGKKELSEVEKAKIRGSYLTVTLQRPTKELHGTSIVPKLQAITASSANLRHSPRVLVQHCPARTPQRGDEEGLGGEEEEEEEEEEEDDSAEEGGAARLNGRGSWAQDGDESWMQREVWMSVFRYLSRRELCECMRVCKTWYKWCCDKRLWTKIDLSRCKAIVPQALSGIIKRQPVSLDLSWTNISKKQLTWLVNRLPGLKDLLLAGCSWSAVSALSTSSCPLLRTLDLRWAVGIKDPQIRDLLTPPADKPGQDNRSKLRNMTDFRLAGLDITDATLRLIIRHMPLLSRLDLSHCSHLTDQSSNLLTAVGSSTRYSLTELNMAGCNKLTDQTLIYLRRIANVTLIDLRGCKQITRKACEHFISDLSINSLYCLSDEKLIQKIS | – | binds
